Experimental data from article PMC12044017, “CDK4/6-mediated phosphorylation of DUB3 promotes YAP1 stability and hepatocellular carcinoma progression” (Cell Death Discovery, 2025).
These are yes or no findings as the source states them, for the method shown. In cells and extracts the contact can be indirect. A yes stands for co-enrichment or nearness to the bait. Other partners may have been found. Values belong to the molecule of their own block, whether it stands above or below them.

Target: Flag-YAP1 (UniProt P46937)
Assay: affinity purification with mass spectrometry; tandem affinity purification of YAP1 complexes from HCCLM3 cells stably expressing Flag-YAP1; mass spectrometric analysis

binding: binds
Molecule: EGFR (from UniProt P00533 25-1210) (receptor)

binding: binds
B1: DUB3 (endogenous) (enzyme, UniProt Q6R6M4 1-530)
chain: MEDDSLYLGGEWQFNHFSKLTSSRPDAAFAEIQRTSLPEKSPLSSEARVDLCDDLAPVARQLAPRKKLPLSSRRPAAVGAGLQNMGNTCYENASLQCLTYTPPLANYMLSREHSQTCQRPKCCMLCTMQAHITWALHSPGHVIQPSQALAAGFHRGKQEDAHEFLMFTVDAMKKACLPGHKQVDHHSKDTTLIHQIFGGCWRSQIKCLHCHGISDTFDPYLDIALDIQAAQSVKQALEQLVKPEELNGENAYHCGLCLQRAPASKTLTLHTSAKVLILVLKRFSDVTGNKLAKNVQYPECLDMQPYMSQQNTGPLVYVLYAVLVHAGWSCHDGHYFSYVKAQEGQWYKMDDAKVTACSITSVLSQQAYVLFYIQKSEWERHSESVSRGREPRALGAEDTDRRATQGELKRDHPCLQAPELDERLVERATQESTLDHWKFPQEQNKTKPEFNVRKVEGTLPPNVLVIHQSKYKCGMKNHHPEQQSSLLNLSSTTRTDQESVNTGTLASLQGRTRRSKGKNKHSKRALLVCQ
